Results taken from patent US9745283B2, “Uracil derivatives as AXL and c-MET kinase inhibitors” (priority 2011, dated 2017).

Biological target: recombinant human baculovirus-expressed cMET (Homo sapiens (Human), UniProt P08581)
Experiment: C-MET Kinase Assay (HTRF KinEASE)
Assay type: biochemical
Details: average of two or more determinations
Description: The cMET kinase assay was performed in 384-well Fluotrac™ 200 HiBase microplates using the HTRF KinEASE™ assay described above for AXL except that the assay volume was reduced to half. Enzyme concentration was 8 ng/mL of recombinant human baculovirus-expressed cMET while the substrate concentrations were 0.1 μM and 0.02 μM for the biotinylated peptide and ATP, respectively. Instead of the Multidrop Combi, the BioRAPTR® FRD microfluidic workstation (Beckman Coulter, Brea, Calif.) was utilized for reagent additions.
Inhibition curves for compounds were generated by plotting percent control activity versus log 10 of the concentration of compound. IC50 values were calculated by nonlinear regression using the sigmoidal dose-response (variable slope) equation in GraphPad Prism as follows: y=bottom+(top−bottom)/(1+10(log IC50−x)*Hill Slope) where y is the % kinase activity at a given concentration of compound, x is the logarithm of the concentration of compound, bottom is the % of control kinase activity at the highest compound concentration tested, and top is the % of control kinase activity at the lowest compound concentration examined. The values for bottom and top were fixed at 0 and 100, respectively.

IC50: 10 to 100 nM
SMILES: CCn1nc(C(=O)Nc2ccc(Oc3ccnc4cc(OC)c(OC)cc34)c(C(C)C)c2)c(=O)n(-c2ccc(F)cc2)c1=O [Example 165, 2-Ethyl-4-(4-fluoro-phenyl)-3,5-dioxo-2,3,4,5-tetrahydro-1,2,4-triazine-6-carboxylic acid [4-(6,7-dimethoxy-quinolin-4-yloxy)-3-isopropyl-phenyl]-amide]
